Assay results published in PMC8660799, “Cryo-EM reveals unique structural features of the FhuCDB Escherichia coli ferrichrome importer” (Communications Biology, 2021).
These are yes or no findings as the source states them, for the method shown. Some entries that bind do so weakly or less than the wild type.

Key:
[1] = target: T1, FhuCB subcomplex with FhuB E304 mutated to Ala (Escherichia coli) (UniProt P07821+P06972); assay: MST; FhuCB with FhuB mutants in detergent, labelled on the His-tag; FhuD loaded with ferrichrome titrated; whether ATP-Mg was present is not given; both purified
T1 sequence (chain, red-tris-NTA 2nd generation dye on the His-tag) 1: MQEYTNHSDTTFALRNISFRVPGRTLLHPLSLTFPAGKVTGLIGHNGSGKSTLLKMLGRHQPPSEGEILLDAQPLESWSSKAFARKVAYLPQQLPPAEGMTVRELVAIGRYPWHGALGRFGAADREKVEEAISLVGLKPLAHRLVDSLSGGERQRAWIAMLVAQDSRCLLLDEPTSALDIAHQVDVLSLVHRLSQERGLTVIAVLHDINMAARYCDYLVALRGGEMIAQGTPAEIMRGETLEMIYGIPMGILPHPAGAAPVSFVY
T1 sequence (chain, red-tris-NTA 2nd generation dye on the His-tag) 2: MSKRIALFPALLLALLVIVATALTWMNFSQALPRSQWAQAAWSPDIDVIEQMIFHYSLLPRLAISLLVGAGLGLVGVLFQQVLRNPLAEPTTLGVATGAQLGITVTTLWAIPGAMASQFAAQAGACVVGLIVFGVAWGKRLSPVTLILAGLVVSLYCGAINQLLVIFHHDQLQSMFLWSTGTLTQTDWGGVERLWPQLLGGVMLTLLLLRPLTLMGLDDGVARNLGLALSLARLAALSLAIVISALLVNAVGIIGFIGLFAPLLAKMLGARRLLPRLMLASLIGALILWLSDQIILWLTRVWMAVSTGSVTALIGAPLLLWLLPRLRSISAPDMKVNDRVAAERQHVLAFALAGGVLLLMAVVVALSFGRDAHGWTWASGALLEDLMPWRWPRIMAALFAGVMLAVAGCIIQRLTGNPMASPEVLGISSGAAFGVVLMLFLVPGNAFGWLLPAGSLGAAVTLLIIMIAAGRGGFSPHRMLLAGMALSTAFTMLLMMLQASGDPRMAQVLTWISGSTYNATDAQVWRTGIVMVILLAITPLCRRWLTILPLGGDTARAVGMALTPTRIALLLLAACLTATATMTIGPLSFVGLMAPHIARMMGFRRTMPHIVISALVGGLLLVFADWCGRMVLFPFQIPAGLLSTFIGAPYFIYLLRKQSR

[2] = target: T2, FhuCB subcomplex with FhuB R390 mutated to Ala (Escherichia coli) (UniProt P07821+P06972); assay: as above
T2 sequence (chain, red-tris-NTA 2nd generation dye on the His-tag) 1: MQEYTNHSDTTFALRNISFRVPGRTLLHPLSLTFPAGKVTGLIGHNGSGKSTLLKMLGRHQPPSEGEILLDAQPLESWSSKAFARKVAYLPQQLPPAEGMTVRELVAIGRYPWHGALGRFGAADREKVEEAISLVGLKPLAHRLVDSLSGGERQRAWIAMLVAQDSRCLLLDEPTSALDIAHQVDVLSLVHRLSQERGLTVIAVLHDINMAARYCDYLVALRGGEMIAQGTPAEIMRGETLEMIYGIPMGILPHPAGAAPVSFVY
T2 sequence (chain, red-tris-NTA 2nd generation dye on the His-tag) 2: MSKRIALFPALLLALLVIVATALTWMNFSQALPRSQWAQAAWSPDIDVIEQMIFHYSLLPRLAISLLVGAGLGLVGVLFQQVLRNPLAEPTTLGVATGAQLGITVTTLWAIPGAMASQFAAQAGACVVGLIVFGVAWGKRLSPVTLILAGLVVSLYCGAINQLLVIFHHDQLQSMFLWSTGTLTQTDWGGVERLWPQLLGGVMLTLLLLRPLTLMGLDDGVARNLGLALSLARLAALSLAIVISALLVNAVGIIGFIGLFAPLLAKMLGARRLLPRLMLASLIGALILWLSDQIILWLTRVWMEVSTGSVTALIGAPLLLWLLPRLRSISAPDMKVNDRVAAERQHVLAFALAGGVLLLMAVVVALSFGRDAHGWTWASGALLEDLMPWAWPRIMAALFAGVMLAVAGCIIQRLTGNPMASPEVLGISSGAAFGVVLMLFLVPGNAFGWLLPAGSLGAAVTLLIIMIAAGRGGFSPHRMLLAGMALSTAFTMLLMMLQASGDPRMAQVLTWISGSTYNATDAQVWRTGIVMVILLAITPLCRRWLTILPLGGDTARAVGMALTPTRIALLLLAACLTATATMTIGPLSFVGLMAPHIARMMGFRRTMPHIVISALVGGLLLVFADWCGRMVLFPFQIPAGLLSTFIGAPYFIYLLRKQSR

[3] = target: T3, FhuCB subcomplex with FhuB Q507 and T510 mutated to Ala (Escherichia coli) (UniProt P07821+P06972); assay: as above
T3 sequence (chain, red-tris-NTA 2nd generation dye on the His-tag) 1: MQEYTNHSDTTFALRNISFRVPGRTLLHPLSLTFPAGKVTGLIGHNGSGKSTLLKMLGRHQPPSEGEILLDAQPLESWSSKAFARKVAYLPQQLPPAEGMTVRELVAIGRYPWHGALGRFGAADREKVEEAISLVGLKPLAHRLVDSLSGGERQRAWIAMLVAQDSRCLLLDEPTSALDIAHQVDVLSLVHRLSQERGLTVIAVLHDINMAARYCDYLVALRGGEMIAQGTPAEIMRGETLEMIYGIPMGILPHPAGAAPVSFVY
T3 sequence (chain, red-tris-NTA 2nd generation dye on the His-tag) 2: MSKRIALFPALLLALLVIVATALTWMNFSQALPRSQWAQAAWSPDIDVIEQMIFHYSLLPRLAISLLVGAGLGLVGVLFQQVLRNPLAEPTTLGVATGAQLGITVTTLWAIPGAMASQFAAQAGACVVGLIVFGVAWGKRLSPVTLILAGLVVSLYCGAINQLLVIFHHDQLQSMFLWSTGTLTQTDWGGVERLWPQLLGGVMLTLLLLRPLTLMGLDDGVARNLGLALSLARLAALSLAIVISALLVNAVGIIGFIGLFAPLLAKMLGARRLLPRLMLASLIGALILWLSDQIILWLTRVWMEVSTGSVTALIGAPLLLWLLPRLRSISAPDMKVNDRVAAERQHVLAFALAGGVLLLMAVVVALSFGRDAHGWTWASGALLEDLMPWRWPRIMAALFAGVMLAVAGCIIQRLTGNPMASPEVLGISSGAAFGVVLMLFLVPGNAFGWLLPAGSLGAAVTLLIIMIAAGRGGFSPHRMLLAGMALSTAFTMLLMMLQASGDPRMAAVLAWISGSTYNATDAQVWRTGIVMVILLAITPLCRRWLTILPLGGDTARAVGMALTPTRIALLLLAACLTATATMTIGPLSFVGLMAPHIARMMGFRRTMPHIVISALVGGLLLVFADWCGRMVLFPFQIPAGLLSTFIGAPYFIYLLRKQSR

[4] = target: T4, FhuCB subcomplex with FhuB Q636 mutated to Ala (Escherichia coli) (UniProt P07821+P06972); assay: as above
T4 sequence (chain, red-tris-NTA 2nd generation dye on the His-tag) 1: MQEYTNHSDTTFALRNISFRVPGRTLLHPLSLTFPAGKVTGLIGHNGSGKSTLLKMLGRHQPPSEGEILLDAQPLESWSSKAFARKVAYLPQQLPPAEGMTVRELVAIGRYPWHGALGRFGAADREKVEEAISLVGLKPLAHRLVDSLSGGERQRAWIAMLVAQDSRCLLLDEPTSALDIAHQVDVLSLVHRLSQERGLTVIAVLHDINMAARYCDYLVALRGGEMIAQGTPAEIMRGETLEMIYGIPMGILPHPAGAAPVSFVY
T4 sequence (chain, red-tris-NTA 2nd generation dye on the His-tag) 2: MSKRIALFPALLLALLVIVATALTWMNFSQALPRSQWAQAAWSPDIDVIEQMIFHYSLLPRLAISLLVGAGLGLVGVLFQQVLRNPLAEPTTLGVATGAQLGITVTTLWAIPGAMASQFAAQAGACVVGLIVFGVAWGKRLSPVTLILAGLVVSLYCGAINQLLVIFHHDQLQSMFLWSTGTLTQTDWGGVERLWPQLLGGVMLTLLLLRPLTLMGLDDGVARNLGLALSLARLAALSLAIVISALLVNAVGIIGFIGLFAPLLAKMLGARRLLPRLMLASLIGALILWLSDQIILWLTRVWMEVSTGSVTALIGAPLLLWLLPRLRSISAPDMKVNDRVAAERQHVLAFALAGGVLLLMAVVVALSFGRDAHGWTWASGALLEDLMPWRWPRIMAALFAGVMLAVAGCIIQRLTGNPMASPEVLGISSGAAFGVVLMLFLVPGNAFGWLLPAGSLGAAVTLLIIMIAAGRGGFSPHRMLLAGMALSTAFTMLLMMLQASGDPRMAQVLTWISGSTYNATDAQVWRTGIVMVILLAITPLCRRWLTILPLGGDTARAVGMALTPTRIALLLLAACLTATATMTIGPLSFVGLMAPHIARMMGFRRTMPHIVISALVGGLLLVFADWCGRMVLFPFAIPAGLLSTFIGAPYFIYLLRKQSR

[5] = target: T5, FhuCB subcomplex with FhuB S57 mutated to Ala (Escherichia coli) (UniProt P07821+P06972); assay: as above
T5 sequence (chain, red-tris-NTA 2nd generation dye on the His-tag) 1: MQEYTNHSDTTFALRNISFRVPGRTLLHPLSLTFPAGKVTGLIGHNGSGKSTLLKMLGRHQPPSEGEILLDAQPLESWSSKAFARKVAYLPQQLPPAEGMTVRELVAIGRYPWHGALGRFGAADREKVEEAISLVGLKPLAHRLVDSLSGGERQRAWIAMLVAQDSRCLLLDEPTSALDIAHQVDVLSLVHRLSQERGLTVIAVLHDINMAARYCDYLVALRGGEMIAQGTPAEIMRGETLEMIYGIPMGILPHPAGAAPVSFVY
T5 sequence (chain, red-tris-NTA 2nd generation dye on the His-tag) 2: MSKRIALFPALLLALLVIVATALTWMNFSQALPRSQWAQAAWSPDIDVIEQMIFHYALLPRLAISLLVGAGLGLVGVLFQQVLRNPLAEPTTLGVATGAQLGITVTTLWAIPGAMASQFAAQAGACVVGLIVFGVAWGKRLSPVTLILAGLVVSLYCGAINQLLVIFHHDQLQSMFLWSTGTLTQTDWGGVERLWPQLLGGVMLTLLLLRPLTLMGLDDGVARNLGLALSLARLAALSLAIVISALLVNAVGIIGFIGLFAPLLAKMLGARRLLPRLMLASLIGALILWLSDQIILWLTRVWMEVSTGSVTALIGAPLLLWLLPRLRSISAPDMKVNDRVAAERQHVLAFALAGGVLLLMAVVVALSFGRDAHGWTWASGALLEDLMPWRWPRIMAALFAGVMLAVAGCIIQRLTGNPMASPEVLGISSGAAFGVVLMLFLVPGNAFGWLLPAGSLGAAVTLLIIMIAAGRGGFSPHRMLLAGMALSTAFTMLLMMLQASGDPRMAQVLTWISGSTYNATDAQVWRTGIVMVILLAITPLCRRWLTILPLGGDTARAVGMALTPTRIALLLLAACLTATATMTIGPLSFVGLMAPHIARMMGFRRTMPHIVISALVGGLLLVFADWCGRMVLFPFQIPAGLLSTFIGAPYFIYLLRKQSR

[6] = target: T6, FhuCB subcomplex (membrane subunit FhuB and cytosolic ATPase FhuC of the ferrichrome importer), wild type (Escherichia coli) (UniProt P07821+P06972); assay: MST; 40 nM FhuCB in detergent, His-tag labelled with red-tris-NTA 2nd generation dye; serial dilution of 30 μM FhuD without substrate; with ATP-Mg; Monolith NT.115pico, 20% LED power, medium MST power; both purified
T6 sequence (chain, red-tris-NTA 2nd generation dye on the His-tag (in the MST experiments)) 1: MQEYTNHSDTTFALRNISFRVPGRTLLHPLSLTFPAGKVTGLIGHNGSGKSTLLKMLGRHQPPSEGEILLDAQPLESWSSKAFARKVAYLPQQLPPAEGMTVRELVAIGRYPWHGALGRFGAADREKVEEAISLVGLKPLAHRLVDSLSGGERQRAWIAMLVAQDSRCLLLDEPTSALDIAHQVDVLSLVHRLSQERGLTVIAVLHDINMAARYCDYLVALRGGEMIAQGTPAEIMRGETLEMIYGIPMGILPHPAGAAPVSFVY
T6 sequence (chain, red-tris-NTA 2nd generation dye on the His-tag (in the MST experiments)) 2: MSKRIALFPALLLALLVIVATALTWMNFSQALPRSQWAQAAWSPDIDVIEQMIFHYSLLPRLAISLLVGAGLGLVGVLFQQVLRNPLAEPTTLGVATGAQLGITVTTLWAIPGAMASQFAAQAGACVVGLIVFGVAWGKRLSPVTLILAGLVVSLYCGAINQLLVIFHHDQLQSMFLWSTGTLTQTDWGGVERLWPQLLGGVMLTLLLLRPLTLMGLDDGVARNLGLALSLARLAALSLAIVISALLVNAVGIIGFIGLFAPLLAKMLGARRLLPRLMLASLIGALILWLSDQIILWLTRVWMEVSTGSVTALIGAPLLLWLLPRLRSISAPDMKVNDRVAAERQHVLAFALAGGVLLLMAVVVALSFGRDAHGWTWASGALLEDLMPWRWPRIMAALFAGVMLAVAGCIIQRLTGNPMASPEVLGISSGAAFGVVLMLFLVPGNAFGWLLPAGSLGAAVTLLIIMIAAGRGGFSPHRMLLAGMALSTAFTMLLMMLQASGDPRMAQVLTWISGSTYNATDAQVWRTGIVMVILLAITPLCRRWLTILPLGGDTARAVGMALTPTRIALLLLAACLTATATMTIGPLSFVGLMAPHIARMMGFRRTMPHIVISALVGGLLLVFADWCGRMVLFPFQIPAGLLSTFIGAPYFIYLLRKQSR

[7] = target: T6, FhuCB subcomplex (membrane subunit FhuB and cytosolic ATPase FhuC of the ferrichrome importer), wild type (Escherichia coli); assay: MST; 40 nM FhuCB in detergent, His-tag labelled with red-tris-NTA 2nd generation dye; serial dilution of 30 μM FhuD without substrate; without ATP-Mg; Monolith NT.115pico, 20% LED power, medium MST power; both purified

binding [1]: binds
binding [2]: binds
binding [3]: binds
binding [4]: binds
binding [5]: binds
binding [6]: binds
binding [7]: binds
B1: FhuD, periplasmic substrate-binding protein, expressed alone (natural protein, Escherichia coli, UniProt P07822 31-296, looked up)
chain: AAIDPNRIVALEWLPVELLLALGIVPYGVADTINYRLWVSEPPLPDSVIDVGLRTEPNLELLTEMKPSFMVWSAGYGPSPEMLARIAPGRGFNFSDGKQPLAMARKSLTEMADLLNLQSAAETHLAQYEDFIRSMKPRFVKRGARPLLLTTLIDPRHMLVFGPNSLFQEILDEYGIPNAWQGETNFWGSTAVSIDRLAAYKDVDVLCFDHDNSKDMDALMATPLWQAMPFVRAGRFQRVPAVWFYGATLSAMHFVRVLDNAIGGKA
notes: the gene was amplified and cloned into pET15b; Used without substrate and loaded with the small molecule ferrichrome (told apart by the assays); also called SBP; ferrichrome-loaded FhuD
